Screening data

Data taken from PubChem BioAssay AID1053133, deposited by Broad Institute (2014).

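Vaccinia-infected cells with a two-color viral stage reporter; Venus fluorescence read on a plate reader; the cell line is not named here; timing not stated here.
The test concentration is not given here.
Percent change in Venus reporter signal; lower (more negative) values mean stronger inhibition of that viral stage.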

Values are in %.
The controls that fix the scale are not given here.
Common to all entries: measured here: Venus reporter, other viral stage.
Part of the compounds only, not a random draw; the main read-out is not listed here.

{"structure": "O=C(C[C@H]1CC[C@@H]2[C@H](COC[C@@H](O)CN2C(=O)Nc2ccc(C(F)(F)F)cc2)O1)NCC1CCCCC1", "activity change (Venus) (%)": "-47.18"}
{"structure": "O=C(C[C@@H]1CC[C@@H]2[C@H](COC[C@@H](O)CN2C(=O)Nc2ccc(Cl)c(Cl)c2)O1)NC1CCC1", "activity change (Venus) (%)": "-36.48"}
{"structure": "C[C@@H]1CCCCO[C@H](CN(C)C(=O)Nc2ccc3c(c2)OCO3)[C@@H](C)CN([C@@H](C)CO)C(=O)c2cc(NC(=O)C3CCCCC3)ccc2O1", "activity change (Venus) (%)": "-29.2"}
{"structure": "CC(C)CC#Cc1ccc([C@@H]2[C@@H](CO)N3C(=O)CN(C(=O)Nc4ccc(F)cc4)C[C@@H]23)cc1", "activity change (Venus) (%)": "-68.99"}
{"structure": "CN(C)C(=O)c1ccc(-c2ccc3c(c2)[C@H]2[C@H](CCN2C(=O)C2CCCC2)[C@@H](CO)N3C)cc1", "activity change (Venus) (%)": "-37.34"}
{"structure": "C[C@@H]1CN([C@@H](C)CO)C(=O)c2c(c3ccccc3n2C)-c2ccccc2CO[C@@H]1CN(C)Cc1cccnc1", "activity change (Venus) (%)": "-43.33"}
{"structure": "C[C@@H]1CCCCO[C@@H](CN(C)S(=O)(=O)c2ccc(F)cc2)[C@H](C)CN([C@H](C)CO)C(=O)c2cc(NS(=O)(=O)c3ccccc3)ccc2O1", "activity change (Venus) (%)": "-36.94"}
{"structure": "C[C@@H]1CCCCO[C@@H](CN(C)Cc2ccc3c(c2)OCO3)[C@@H](C)CN([C@@H](C)CO)C(=O)c2cc(NS(=O)(=O)c3ccc(F)cc3)ccc2O1", "activity change (Venus) (%)": "-47.53"}
{"structure": "COc1cccc(C#Cc2cnc3c(c2)C(=O)N([C@H](C)CO)C[C@H](C)[C@@H](CN(C)C(=O)C2CCCCC2)O3)c1", "activity change (Venus) (%)": "-51.35"}
{"structure": "Cc1ccccc1S(=O)(=O)N1C[C@@H](O)COC[C@H]2O[C@@H](CC(=O)N3CCC(Cc4ccccc4)CC3)CC[C@@H]21", "activity change (Venus) (%)": "-36.57"}
{"structure": "CC(C)CC#Cc1ccc2c(c1)O[C@H](CN(C)C(=O)Cc1ccccc1)[C@@H](C)CN([C@H](C)CO)S2(=O)=O", "activity change (Venus) (%)": "-25.34"}
{"structure": "C[C@H](CO)N1C[C@H](C)[C@H](CN(C)CC2CCCC2)Oc2ncc(C#Cc3cccc(F)c3)cc2C1=O", "activity change (Venus) (%)": "-43.66"}
{"structure": "C[C@@H]1CN([C@@H](C)CO)S(=O)(=O)c2ccc(C#CC(C)(C)O)cc2O[C@H]1CN(C)Cc1ccc(-c2ccccc2)cc1", "activity change (Venus) (%)": "-57.76"}
{"structure": "COc1ccc(NC(=O)Nc2ccc3c(c2)C(=O)N([C@@H](C)CO)C[C@@H](C)[C@@H](CN(C)Cc2ccc(C(F)(F)F)cc2)OCCCC[C@@H](C)O3)cc1", "activity change (Venus) (%)": "-31.6"}
{"structure": "C[C@H]1CN([C@@H](C)CO)C(=O)c2c(c3ccccc3n2C)-c2ccccc2CO[C@H]1CN(C)Cc1ccc(Cl)c(Cl)c1", "activity change (Venus) (%)": "-44.51"}
{"structure": "C[C@@H]1CN([C@H](C)CO)C(=O)Cc2cc(NC(=O)Nc3ccc(C(F)(F)F)cc3)ccc2O[C@H]1CN(C)CC1CCCCC1", "activity change (Venus) (%)": "-26.95"}
{"structure": "Cc1ccccc1S(=O)(=O)N1CCCCN2[C@H](CO)[C@H](c3ccc(-c4cccc(F)c4)cc3)[C@H]2C1", "activity change (Venus) (%)": "-50.92"}
{"structure": "C[C@H](CO)N1C[C@H](C)[C@@H](CN(C)Cc2ccc(C(F)(F)F)cc2)Oc2c(NC(=O)CCCCCC(=O)Nc3ccccc3N)cccc2C1=O", "activity change (Venus) (%)": "-40.26"}

Some entries from above, unchanged:

structure,activity change (Venus) (%)
C[C@H](CO)N1C[C@H](C)[C@@H](CN(C)Cc2ccc(C(F)(F)F)cc2)Oc2c(NC(=O)CCCCCC(=O)Nc3ccccc3N)cccc2C1=O,-40.26
C[C@@H]1CN([C@@H](C)CO)S(=O)(=O)c2ccc(C#CC(C)(C)O)cc2O[C@H]1CN(C)Cc1ccc(-c2ccccc2)cc1,-57.76